Some entries share one result that the patent states for a list of compounds. At least one structure is not confirmed: it was looked up by name or label, or the drawing left a doubt.
Target: T1, H^+ -K^+ -ATPase (Sus scrofa, UniProt P19156)
T1 construct: prepared from the lyophilised gastric vesicles of pig fundic mucosa; from tissue; host or cells: pig fundic mucosa (lyophilised gastric vesicles, method of Saccomani et al. 1977)
Assay: K+ stimulated ATPase activity (lyophilised gastric vesicles)
Format: biochemical, pig

Sequences of proteins named here, by UniProt entry; tags and fusion partners are left off. Residues count along the entry.
UniProt P19156, 2-1034 limits assumed: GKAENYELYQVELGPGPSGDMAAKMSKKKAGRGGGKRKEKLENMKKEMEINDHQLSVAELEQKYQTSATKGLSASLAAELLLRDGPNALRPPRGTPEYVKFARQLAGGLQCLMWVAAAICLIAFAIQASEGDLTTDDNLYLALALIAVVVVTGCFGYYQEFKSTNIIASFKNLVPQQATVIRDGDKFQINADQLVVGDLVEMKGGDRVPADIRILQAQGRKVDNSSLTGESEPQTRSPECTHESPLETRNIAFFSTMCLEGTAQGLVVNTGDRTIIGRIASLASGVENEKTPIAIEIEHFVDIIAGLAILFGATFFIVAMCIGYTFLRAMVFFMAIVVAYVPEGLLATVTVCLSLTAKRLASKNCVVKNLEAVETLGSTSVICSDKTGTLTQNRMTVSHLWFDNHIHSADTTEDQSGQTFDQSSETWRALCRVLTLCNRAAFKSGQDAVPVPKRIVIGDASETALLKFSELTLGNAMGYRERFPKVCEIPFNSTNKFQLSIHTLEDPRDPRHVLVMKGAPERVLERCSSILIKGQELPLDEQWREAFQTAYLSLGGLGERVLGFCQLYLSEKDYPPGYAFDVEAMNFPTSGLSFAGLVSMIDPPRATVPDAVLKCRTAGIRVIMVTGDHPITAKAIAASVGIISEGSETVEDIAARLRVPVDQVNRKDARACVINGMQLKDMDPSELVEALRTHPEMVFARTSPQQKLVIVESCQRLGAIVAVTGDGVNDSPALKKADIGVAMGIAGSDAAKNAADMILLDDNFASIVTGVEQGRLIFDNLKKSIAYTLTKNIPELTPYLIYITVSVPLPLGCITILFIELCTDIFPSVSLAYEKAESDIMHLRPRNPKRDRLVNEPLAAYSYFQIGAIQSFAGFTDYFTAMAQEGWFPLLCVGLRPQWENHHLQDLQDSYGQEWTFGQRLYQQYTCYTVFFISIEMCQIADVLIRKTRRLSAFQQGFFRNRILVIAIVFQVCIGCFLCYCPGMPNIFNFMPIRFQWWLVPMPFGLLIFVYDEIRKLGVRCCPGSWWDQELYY

[1] = pre-incubation at pH 6.1, 30 min at 37°
[2] = pre-incubation at pH 7.4, 30 min at 37°

Row | SMILES | inhibit potassium stimulated ATPase activity [1] | inhibit potassium stimulated ATPase activity [2]
1 | COc1ccc2[nH]c([S+]([O-])Cc3cc(N)c(Br)cn3)nc2c1 (stereo not shown) [Example 2, 2-(4-amino-5-bromo-2-pyridylmethylsulphinyl)-5-methoxy-(1-H)-benzimidazole] | inhibit | inhibit
2 | COc1ccc2[nH]c([S+]([O-])Cc3nccc(N4CCOCC4)c3Cl)nc2c1 (stereo not shown) [Example 4, 2-(4-morpholino-3-chloro-2-pyridylmethyl-sulphinyl)-5-methoxy-(1 H)-benzimidazole] | inhibit | inhibit
3 | COc1ccc2[nH]c([S+]([O-])Cc3ncc(C)c(N4CCOCC4)c3Cl)nc2c1 (stereo not shown) [Example 6, 2-(4-morpholino-3-chloro-5-methyl-2-pyridylmethylsulphinyl)--5-methoxy-(1H)-benzimidazole] | inhibit | inhibit
4 | COc1ccc2[nH]c([S+]([O-])Cc3ncc(C)c(N4CCCCC4)c3Cl)nc2c1 (stereo not shown) [Example 8, 2-(4-piperidino-3-chloro-5-methyl-2-pyridylmethylsulphinyl)--5-methoxy-(1H)-benzimidazole] | inhibit | inhibit
5 | COc1ccc2[nH]c([S+]([O-])Cc3nccc(N4CCCCC4)c3Cl)nc2c1 (stereo not shown) [Example 10, 2-(4-piperidino-3-chloro-2-pyridylmethylsulphinyl)-5-methoxy-(1H)-benzimidazole] | inhibit | inhibit
6 | COc1ccc2[nH]c([S+]([O-])Cc3nccc(N4CCCC4)c3Cl)nc2c1 (stereo not shown) [Example 12, 2-(4-pyrrolidino-3-chloro-2-pyridylmethylsulphinyl) - 5-methoxy-(1 H)-benzimidazole] | inhibit | inhibit
7 | COc1ccc2[nH]c([S+]([O-])Cc3ncc(C)c(N4CCCC4)c3Cl)nc2c1 (stereo not shown) [Example 14, 2-(4-pyrrolidino-3-chloro-5-methyl-2-pyridylmethylsulphinyl)-5-methoxy-(1 H)-benzimidazole] | inhibit | inhibit
8 | COc1ccc2[nH]c([S+]([O-])Cc3ncc(C)c(N(C)C)c3Cl)nc2c1 (stereo not shown) [Example 16, 2-(4-dimethylamino-3-chloro-5-methyl-2-pyridylmethylsulphi-nyl)-5-methoxy-(1H)-benzimidazole] | inhibit | inhibit
9 | COc1ccc2[nH]c([S+]([O-])Cc3cc(N4CCCCC4)c(Br)cn3)nc2c1 (stereo not shown) [Example 18, 2-(4-piperidino-5-bromo-2-pyridylmethylsulphinyl) - 5-methoxy-(1 H)-benzimidazole] | inhibit | inhibit
10 | COc1ccc2[nH]c([S+]([O-])Cc3nccc(N4CCCCC4)c3Br)nc2c1 (stereo not shown) [Example 20, 2-(4-piperidino-3-bromo-2-pyridylmethylsulphinyl) - 5-methoxy-(1H)-benzimidazole] | inhibit | inhibit
11 | COc1ccc2[nH]c([S+]([O-])Cc3ncc(Br)c(N4CCCCC4)c3C)nc2c1 (stereo not shown) [Example 22, 2-(4-piperidino-5-bromo-3-methyl-2-pyridylmethylsulphinyl)--5-methoxy-(1 H)-benzimidazole] | inhibit | inhibit
12 | Cc1cnc(C[S+]([O-])c2nc3cc(OC(F)(F)C(F)F)ccc3[nH]2)c(Cl)c1N1CCCCC1 (stereo not shown) [Example 23, 2-(4-piperidino-3-chloro-5-methyl-2-pyridylmethylsulphinyl)--5-(1,1,2,2-tetrafluoroethoxy)-(1H)-benzimidazole] | inhibit | inhibit
13 | COc1ccc2[nH]c([S+]([O-])Cc3cc(N(C)C)c(Br)cn3)nc2c1 (stereo not shown) [Example 25, 2-(4-dimethylamino-5-bromo-2-pyridylmethylsulphinyl)-5-methoxy-(1 H) -benzimidazole] | inhibit | inhibit
14 | COc1ccc2[nH]c([S+]([O-])Cc3cc(N4CCCC4)c(Br)cn3)nc2c1 (stereo not shown) [Example 26, 2-(4-pyrrolidino-5 - bromo-2-pyridylmethylsulphinyl)-5-methoxy-(1H)-benzimidazole] | inhibit | inhibit
